Library screening results

From ChEMBL document CHEMBL3988442, “University of Dundee, Small-Polar-MMV Screening Library” (2021).

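Viability assay of Plasmodium falciparum sporozoites; the read-out is not stated. The concentration is filed as 10 mM, unlikely as a test dose, so the dose is not known. The record gives no direction; compounds that gave an IC50 in retests scored well above the rest, so higher reads as lower viability. Strong results were mostly tested again. Of about 34,000 compounds tested this way, about 280 (0.84%) reached 50% or more in at least one test.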

Results are given as percent effect. The record does not define 0% and 100%; most values in the screen are far below 50% and negative numbers occur (in some assays of this library far below -100). This is an unselected part of the compounds tested. Two or more numbers in one place are separate tests of the same structure; such repeats can differ widely.

- O=C(CN1CCCCC1Cn1cncn1)NCCOc1ccccc1 (centres unmarked) | 3.557%
- Cc1nc2cc(-c3nccn3C)nn2c(N2CCC(O)CC2)c1C.Cl | 0.2567%
- CC1CN(C(=O)CN(Cc2ccco2)Cc2cccs2)CCO1 (centres unmarked) | 0.102%
- Cc1nsc(NCc2ccc(CS(=O)(=O)NC(C)C)cc2)n1 | -15.09%
- CCCC(=O)NC1CCc2c(ccc(=O)n2Cc2csc(C)n2)C1.O=C(O)C(F)(F)F (centres unmarked) | 3.678%
- O=C(COCc1ccccc1)N1CCCC1c1noc(C2CC2)n1 (centres unmarked) | 12.41%
- COCC(=O)NC1CC2(CCN(CCN(C)C)CC2)c2ccccc21 (centres unmarked) | 7.212%
- O=C(O)C(F)(F)F.[H][C@@]12COC[C@]1(CNS(=O)(=O)C1CC1)CN(c1ncc(F)cn1)C2 | 0.7105%
- O=C(O)C(F)(F)F.[H][C@@]12CN(Cc3ccncc3)CC[C@]1([H])CN(c1ccc(C)nn1)C2 | -8.27%
- O=C(O)C1CCCN(C(=O)CCn2ccc3c(Cl)cccc32)C1 (centres unmarked) | -5.904%
- O=C(NCCn1cccc1)C(c1ccccc1)N1CCCC1 (centres unmarked) | -6.124%
- c1ccc2sc(N3CCC4(CCCN4Cc4ncc[nH]4)CC3)nc2c1 | 21.32% and 38.1%
- COc1ccc(F)cc1-c1ccccc1CC1(C(=O)O)CCOCC1 | 3.309%
- Cc1cccc(OCCN2CCC(c3ccnn3CCO)CC2)c1 | -1.346%
- CCn1cc(CN2CCCN(C(=O)C3=NN(C)C(=O)CC3)CC2)cn1 | 6.936%
- Cc1ccccc1S(=O)(=O)N[C@@H]1CC[C@@H](N2CCNC(=O)C2)[C@@H]1O | 5.326%
- COc1ccc(-c2n[nH]cc2CN(C)Cc2nonc2C)c(F)c1 | 9.748%
- CC(C)NC(=O)NCCCc1cc(N)n(-c2ccccc2)n1 | 9.563%
- O=C(O)C(F)(F)F.O=C(O)C(F)(F)F.O=C(O)C(F)(F)F.[H][C@@]12CCCO[C@]1([H])[C@H](N(C)Cc1ccco1)CN2Cc1nccn1C | 16.23%
- O=C(c1ncncc1Cl)N1CCN(c2ccc(Cl)cc2)CC1 | -7.23%
- O=C(O)C(F)(F)F.O=C(O)C(F)(F)F.O=C(O)c1cc2c(nc1-c1ccoc1)CCN(CC1CCOC1)CC2 (centres unmarked) | 12.29%
- CN1CCOC(CNC(=O)COc2ccc(F)cc2F)C1 (centres unmarked) | 7.839% and 6.024% and -0.2171%
- CSc1cc2c(cc1NC(=O)NCc1ccco1)OCCO2 | 1.302% and 4.714% and 3.689%
- CCN(CCNC(=O)C1CCCN(C(C)=O)C1)c1ccccc1C (centres unmarked) | 9.371%
- O=C(NC1CCC1)C1=NOC2(CCN(Cc3ccc(F)cc3)C2)C1 (centres unmarked) | -21.65%
- Cn1cc(C(=O)CC2CCCN2C(=O)c2n[nH]c3ccccc23)cn1 (centres unmarked) | -14.08%
- Cc1cc(-c2nn(C)c(Cl)c2CN2Cc3ccccc3C(O)C2)no1 (centres unmarked) | -3.015%
- Cc1ccc(-c2noc(CN3CCOC(CN(C)C)C3)n2)cc1F (centres unmarked) | 11.95%
- Cc1ccc(C(=O)NS(=O)(=O)c2ccccc2F)c(=O)[nH]1 | 1.248%
- O=C(O)CCc1cc2n(n1)CCN(Cc1ccc3[nH]ccc3c1)C2 | -3.596%
- Cc1cc(C)n(CC2CCCN2C(=O)Cc2c(C)noc2C)n1 (centres unmarked) | 18.08%
- Cc1cccc(NC(=O)C2(n3cnnn3)CCCCC2)n1 | -4.995%
- CCC1CCCCCN1C(=O)c1nnc2ccccc2c1N (centres unmarked) | -2.142%
- CCc1nnc(CNC2CCN(c3ncnc4c(C)csc34)CC2)s1 | -13.07%
- CC(C)N(CC(N)=O)Cc1csc(Cc2ccccc2)n1 | 5.674%
- Cc1cccc2ncn(C(C)Cn3cccn3)c(=O)c12 (centres unmarked) | -19.23%
- CC(C)n1nc2c(cc1=O)CN(CCCN1CCCC1=O)CC2 | 4.121%
- CCN(CC)Cc1cn2c(n1)CN(Cc1c(C)noc1C)CC2.O=C(O)C(F)(F)F.O=C(O)C(F)(F)F | 14.64%
- CNC(=O)CCS(=O)(=O)Cc1cc(Cl)c2c(c1)OCCO2 | -0.5587% and -6.297% and 8.99%
- Cc1cc(CN2CCC(c3ccnn3CCO)CC2)no1 | 7.155%
- CCc1nccn1C1CCCN(C(=O)c2cnn(C)c2C2CC2)C1 (centres unmarked) | -3.36%
- Cc1ccc(CC(=O)NCCCNS(C)(=O)=O)cc1 | -1.193%
- O=C(NCc1ccc2c(c1)OCO2)[C@@H]1C=CCN1c1ncccn1 | 6.841%
- Cc1oc(C)c(C(=O)NCc2cccnc2)c1C | 6.595%
- COCC(=O)N1CCCC(c2csc(NC(C)=O)n2)C1 (centres unmarked) | 4.02%
- c1cnn(CC2CN(CC3CCCCC3)CCO2)c1 (centres unmarked) | 12.83%
- COCCNc1nnc(-c2ccccn2)s1 | -4.496%
- O=C(NCC1(O)CCC1)c1c(O)cc(Cl)cc1Cl | -17.86%
- CN(CC1CCCCO1)C(=O)c1ccnc(OC2CCC2)c1 (centres unmarked) | -17.06%
- CCS(=O)(=O)N1CCC(c2nc3ccc(-c4ccccc4)cn3n2)CC1 | -26.47%

Once more, the final 3:

structure,effect
O=C(NCC1(O)CCC1)c1c(O)cc(Cl)cc1Cl,-17.86
CN(CC1CCCCO1)C(=O)c1ccnc(OC2CCC2)c1 (centres unmarked),-17.06
CCS(=O)(=O)N1CCC(c2nc3ccc(-c4ccccc4)cn3n2)CC1,-26.47